Some test systems named below: Interleukin-13 (human); Interleukin-19 (human); Interleukin-2 (human); Interleukin-22 (human); Interleukin-24 (human); JOSD2 (human); JTB (human); Josephin-1 (human); KCNA6 (human); KCNE1L (human); KCNIP1 (human); KCNIP2 (human).
Assay in all cases: protein microarray (ProtoArray v5.0), streptavidin-Alexa Fluor 647
Common to all, as to details: 3'-biotin; 20 mM Tris (pH 7.5), 5 mM MgCl2, 100 mM KCl, 0.1% Tween-20, A/T-rich and random oligonucleotide blockers; temperature not stated; high values mean tight binding

The test system of test [1] is Interleukin-1 family member 6 (human).
Test [2] has as its system Interleukin-1 receptor antagonist protein (human).
For test [3], the system named is Interleukin-17 receptor D (human).
In test [4] the test system is Interleukin-18-binding protein (human).
For test [5], the system named is Isocitrate dehydrogenase [NADP] cytoplasmic (human).
Test [6] has as its system JmjC domain-containing protein 4 (human).
For test [7], the system named is Junction plakoglobin (human).
The subject of test [8] is Junctional adhesion molecule C (human).

Our source for the binding signal values is PMC5996148.

“And” between values parts separate entries of the source, which are not always exact repeats. Identical values can stand only once. The list shows a part of the results.

In the case of “GGGAGGCTGAGGCAGG [G4-1 biotinylated (PQS2)]”, the binding signal is -0.277 z-score in [1]; -0.35 z-score in [2]; -0.232 z-score in the test with Interleukin-13 (human); -0.236 z-score in test [3]; -0.319 z-score in test [4]; -0.34 z-score in the test with Interleukin-19 (human). Also, the binding signal in the test on Interleukin-2 (human) was -0.323 z-score and -0.296 z-score; in the test with Interleukin-22 (human), -0.333 z-score; in the test with Interleukin-24 (human), -0.308 z-score and -0.317 z-score; in [5], -0.332 z-score and -0.318 z-score; with JOSD2 (human), -0.29 z-score; in the test on JTB (human) it was -0.314 z-score and -0.25 z-score. For the same sequence, the binding signal in test [6] was -0.342 z-score; with Josephin-1 (human), -0.335 z-score; in test [7] it was -0.342 z-score; in test [8] it was -0.341 z-score; in the test with KCNA6 (human), -0.27 z-score; in the test with KCNE1L (human), -0.353 z-score. The binding signal in the test with KCNIP1 (human) is -0.357 z-score; in the test on KCNIP2 (human) it was -0.35 z-score and -0.361 z-score and -0.322 z-score.
